PubChem BioAssay AID1053208 – Peter MacCallum Cancer Centre, 2014

- Screen: 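Find knock-downs that sensitise mouse osteosarcoma cells to doxorubicin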 (primary screen)
- Cell system: mouse osteosarcoma cells, early-passage culture from an engineered mouse model of fibroblastic bone tumour
- Knock-down reagent: siRNA pool against mouse genes, 40 nM
- Duration: about 120 h (48 h before drug, then 72 h with drug)
- Challenge: doxorubicin 100 nM for 72 h, roughly 30-40% inhibitory dose
- Measured: 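Luminescent ATP signal taken as viability with or without 100 nM doxorubicin for 72 h; mean of two wells set against non-targeting siRNA and turned into robust z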
- Scale: viability z-score with doxorubicin: higher = more viable cells under doxorubicin; viability z-score without drug: higher = more viable cells with knock-down alone
- Hit rule: 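a pool counts as active when its viability z-score with doxorubicin is -2 or below and its z-score without drug lies between -2 and 2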
In all, the deposit lists about 17,000 reagents; shown is a part drawn at random. In the full data, 788 (4.7%) are marked active. 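Calls rest on z-score classes alone; an extra cut-off of viability at most 70% of control was not applied to them.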 Entries without a mark were called inactive. Not all columns of the deposit are shown.

Rbbp4 → combined z-score class = no change with or without drug; viability z-score with doxorubicin = -1.35; viability z-score without drug = 0.34
Smpd1 (sphingomyelin phosphodiesterase 1, acid lysosomal) → combined z-score class = no change with or without drug; viability z-score with doxorubicin = -0.45; viability z-score without drug = -1.18
Adam25 (ADAM metallopeptidase domain 25) → combined z-score class = no change with or without drug; viability z-score with doxorubicin = -0.9; viability z-score without drug = -0.51
Sp6 (trans-acting transcription factor 6) → combined z-score class = no change with or without drug; viability z-score with doxorubicin = -1.12; viability z-score without drug = -1.01
Wasl (WASP like actin nucleation promoting factor) → combined z-score class = no change with or without drug; viability z-score with doxorubicin = -1.57; viability z-score without drug = 1.01
Thap1 (THAP domain containing, apoptosis associated protein 1) → combined z-score class = high cell count with doxorubicin only; viability z-score with doxorubicin = 3.71; viability z-score without drug = 1.52
St6galnac6 → combined z-score class = no change with or without drug; viability z-score with doxorubicin = 0; viability z-score without drug = 0.17
Minar2 (membrane integral NOTCH2 associated receptor 2) → combined z-score class = no change with or without drug; viability z-score with doxorubicin = 0.56; viability z-score without drug = -0.84
Tbrg1 (transforming growth factor beta regulated gene 1) → combined z-score class = high cell count without drug only; viability z-score with doxorubicin = 0.67; viability z-score without drug = 2.87
Golgb1 (golgin B1) → combined z-score class = no change with or without drug; viability z-score with doxorubicin = 0; viability z-score without drug = 1.01
Gda (guanine deaminase) → combined z-score class = no change with or without drug; viability z-score with doxorubicin = 0.34; viability z-score without drug = 1.85

Laid out differently: results already given.
{"gene symbol":"Sp6 (trans-acting transcription factor 6)","combined z-score class":"no change with or without drug","viability z-score with doxorubicin":-1.12,"viability z-score without drug":-1.01}
{"gene symbol":"Wasl (WASP like actin nucleation promoting factor)","combined z-score class":"no change with or without drug","viability z-score with doxorubicin":-1.57,"viability z-score without drug":1.01}

More records follow.
Cadps (Ca2+-dependent secretion activator) → combined z-score class = no change with or without drug; viability z-score with doxorubicin = 1.35; viability z-score without drug = 1.18
Pgk2 (phosphoglycerate kinase 2) → combined z-score class = no change with or without drug; viability z-score with doxorubicin = 0.67; viability z-score without drug = 0.17
Synj2bp (synaptojanin 2 binding protein) → combined z-score class = no change with or without drug; viability z-score with doxorubicin = -1.12; viability z-score without drug = -0.17
Bicc1 (BicC family RNA binding protein 1) → combined z-score class = low cell count with doxorubicin only (active); viability z-score with doxorubicin = -2.02; viability z-score without drug = -1.52
Pde1a (phosphodiesterase 1A, calmodulin-dependent) → combined z-score class = no change with or without drug; viability z-score with doxorubicin = -0.67; viability z-score without drug = -1.18
Wdr54 (WD repeat domain 54) → combined z-score class = no change with or without drug; viability z-score with doxorubicin = 1.8; viability z-score without drug = 1.18
Nub1 (negative regulator of ubiquitin-like proteins 1) → combined z-score class = no change with or without drug; viability z-score with doxorubicin = 0.22; viability z-score without drug = 0.17
Phxr1 (per-hexamer repeat gene 1) → combined z-score class = no change with or without drug; viability z-score with doxorubicin = -0.56; viability z-score without drug = 0.51
